Values quoted from earlier work in patent US20100234459A1, “MEDICALL USE OF 3-(2,2,2,-TRIMETHYLYHDRAZINIUM) PROPIONATE HDROGEN FUMARATE AND DIHYDROGEN PHOSEPHATE” (JSC GRINDEKS, priority 2007, published 2010).
At least one structure is not confirmed: it was looked up by name or label, or the drawing left a doubt.

Legend:
[1] = system: rats with triton WR-1339 hyperlipidemia; details: cited from earlier work
[2] = system: patients with concomitant forms of atherosclerosis; details: atherosclerosis in coronary, cerebral and peripheral blood-vessels; cited from earlier work
[3] = cited from earlier work

SMILES	hypolipodemic activity [1]	effect on regional circulation and lipid metabolism [2]	stability comparatively with Meldonium dihydrate [3]
C[N+](C)(C)NCCC(=O)[O-] [Meldonium dihydrate, 3-(2,2,2-trimethylhydrazinium) propionate dihydrate]	displays hypolipodemic activity	beneficial effect on the regional circulation, lipid metabolism	
C[N+](C)(C)NCCC(=O)O.O=P([O-])(O)O [Meldonium dihydrogen phosphate]			more stable
